Values quoted from earlier work in patent publication US20180235870A1, “TRANSDERMAL FORMULATIONS FOR DELIVERY OF BERBERINE COMPOUNDS, AND THEIR USE IN THE TREATMENT OF BERBERINE-RESPONSIVE DISEASES AND CONDITIONS” (DELIVRA INC., priority 2015, published 2018).
The name of at least one read-out is uncertain.

Settings: in vivo; cited from earlier work

SMILES: COc1ccc2c(c1OC)CN1CCc3cc4c(cc3C1=C2)OCO4 [DHB, dihydroberberine]
- bioavailability compared to berberine (in words): increased bioavailability compared to berberine
